Assay results taken from US11992473B2, “Compositions and methods for diagnosis and treatment of conditions related to the quality of aging and longevity” (Epitracker, Inc., priority 2018, dated 2024).

Test: Modified fish diet study: fold differences of serum metabolites
Assay type: in vivo, Bottlenose dolphins (Tursiops truncatus)
Conditions: for Significant fold differences in serum between Month 0 and Month 1 in Modified Diet group: Month 1 vs Month 0

## sphingomyelin (d17:2/16:0, d18:2/15:0)
  Significant fold differences in serum between Baseline and Modified Diet groups at Month 1: 1.76
  Significant fold differences in serum between Month 0 and Month 1 in Modified Diet group: 1.61

## CCCCCCCCCCCCCCCCC(=O)O [Margarate (C17:0), margarate]
  Significant fold differences in serum between Baseline and Modified Diet groups at Month 1: 2.4
  Significant fold differences in serum between Month 0 and Month 1 in Modified Diet group: 2.52

## CCCCC/C=C\C/C=C\C/C=C\C/C=C\CCCC(=O)O[C@H](CO/C=C\CCCCCCCCCCCCCCCC)COP(=O)(O)OCCN [1-(1-enyl-stearoyl)-2-arachidonoyl-GPE (P-18:0/20:4)]
  Significant fold differences in serum between Baseline and Modified Diet groups at Month 1: 2.26
  Significant fold differences in serum between Month 0 and Month 1 in Modified Diet group: 2.29

## CCCCCCCCCCCCCCCCCCCCCCCC(=O)OC[C@@H](O)COP(=O)([O-])OCC[N+](C)(C)C [1-lignoceroyl-GPC (24:0)]
  Significant fold differences in serum between Baseline and Modified Diet groups at Month 1: 2.96
  Significant fold differences in serum between Month 0 and Month 1 in Modified Diet group: 2.86

## O=C1CCCN1 [2-pyrrolidinone]
  Significant fold differences in serum between Baseline and Modified Diet groups at Month 1: 1.16
  Significant fold differences in serum between Month 0 and Month 1 in Modified Diet group: 1.12

## CC(C)CCCCCCCCCCCCCC(=O)O [15-methylpalmitate (i17:0), 15-methylpalmitate]
  Significant fold differences in serum between Baseline and Modified Diet groups at Month 1: 1.23
  Significant fold differences in serum between Month 0 and Month 1 in Modified Diet group: 1.18

## CCCCCCC=CCCCCCCCCC(=O)O [10-heptadecanoate (C17:1n7), 10-heptadecanoate]
  Significant fold differences in serum between Baseline and Modified Diet groups at Month 1: 2.31
  Significant fold differences in serum between Month 0 and Month 1 in Modified Diet group: 2.2

## CCCCCCCCCCCCC/C=C/[C@@H](O)[C@H](COP(=O)([O-])OCC[N+](C)(C)C)NC(=O)CCCCCCCCCCCCCCCCCCCCC [Behenoyl sphingomyelin (d18:1/22:0), behenoyl sphingomyelin (d18:1/22:0)]
  Significant fold differences in serum between Baseline and Modified Diet groups at Month 1: 1.63
  Significant fold differences in serum between Month 0 and Month 1 in Modified Diet group: 1.46

## sphingomyelin (d18:2/23:0, d18:1/23:1, d17:1/24:1)
  Significant fold differences in serum between Baseline and Modified Diet groups at Month 1: 1.97
  Significant fold differences in serum between Month 0 and Month 1 in Modified Diet group: 1.69

## sphingomyelin (d18:1/21:0, d17:1/22:0, d16:1/23:0)
  Significant fold differences in serum between Baseline and Modified Diet groups at Month 1: 2.05
  Significant fold differences in serum between Month 0 and Month 1 in Modified Diet group: 1.93

## CCCCCCCCCCCCC/C=C/[C@@H](O)[C@H](COP(=O)([O-])OCC[N+](C)(C)C)NC(=O)CCCCCCCCCCCCCCCCCCCCCC [Tricosanoyl sphingomyelin (d18:1/23:0), tricosanoyl sphingomyelin (d18:1/23:0)]
  Significant fold differences in serum between Baseline and Modified Diet groups at Month 1: 3.02
  Significant fold differences in serum between Month 0 and Month 1 in Modified Diet group: 2.82

## CCCCCCCC/C=C\CCCCCCCC(=O)O[C@H](COC(=O)CCCCCCCCCCCCCCCCC)COP(=O)(O)OC[C@H](N)C(=O)O [1-stearoyl-2-oleoyl-GPS (18:0/18:1)]
  Significant fold differences in serum between Baseline and Modified Diet groups at Month 1: 1.92

## sphingomyelin (d18:1/19:0, d19:1/18:0)
  Significant fold differences in serum between Baseline and Modified Diet groups at Month 1: 1.95
  Significant fold differences in serum between Month 0 and Month 1 in Modified Diet group: 1.83

## CCCCC/C=C\C/C=C\C/C=C\C/C=C\CCCC(=O)OCC(O)CO (stereo not shown) [1-arachidonylglycerol (20:4)]
  Significant fold differences in serum between Baseline and Modified Diet groups at Month 1: 2.43
  Significant fold differences in serum between Month 0 and Month 1 in Modified Diet group: 2.25

## CCCCC/C=C\C/C=C\C/C=C\C/C=C\CCCC(=O)O[C@H](CO/C=C\CCCCCCCCCCCCCC)COP(=O)([O-])OCC[N+](C)(C)C [1-(1-enyl-palmitoyl)-2-arachidonoyl-GPC (P-16:0/20:4)]
  Significant fold differences in serum between Baseline and Modified Diet groups at Month 1: 2.92
  Significant fold differences in serum between Month 0 and Month 1 in Modified Diet group: 2.71

## CCCCC/C=C\C/C=C\C/C=C\C/C=C\CCCC(=O)O[C@H](COC(=O)CCCCCCCCCCCCCCCCC)COP(=O)(O)OCCN [1-stearoyl-2-arachidonoyl-GPE (18:0/20:4)]
  Significant fold differences in serum between Baseline and Modified Diet groups at Month 1: 1.92
  Significant fold differences in serum between Month 0 and Month 1 in Modified Diet group: 2.08

## CCCCC/C=C\C/C=C\C/C=C\C/C=C\CCCC(=O)O[C@H](COC(=O)CCCCCCCCCCCCCCCCC)COP(=O)([O-])OCC[N+](C)(C)C [1-stearoyl-2-arachidonoyl-GPC (18:0/20:4)]
  Significant fold differences in serum between Baseline and Modified Diet groups at Month 1: 1.71
  Significant fold differences in serum between Month 0 and Month 1 in Modified Diet group: 1.92

## CC(C)CCCCCCCCCCCCCCCC(=O)O [17-methylstearate (i19:0), 17-methylstearate]
  Significant fold differences in serum between Baseline and Modified Diet groups at Month 1: 1.37
  Significant fold differences in serum between Month 0 and Month 1 in Modified Diet group: 1.36

## CCCCCCCCC(=O)O [Pelargonate (C9:0), pelargonate]
  Significant fold differences in serum between Month 0 and Month 1 in Modified Diet group: 1.17

## CCCCCCC(O)C(=O)O (stereo not shown) [2-hydroxyoctanoate]
  Significant fold differences in serum between Baseline and Modified Diet groups at Month 1: 1.29
  Significant fold differences in serum between Month 0 and Month 1 in Modified Diet group: 1.29

## sphingomyelin (d18:1/17:0, d17:1/18:0, d19:1/16:0)
  Significant fold differences in serum between Baseline and Modified Diet groups at Month 1: 1.99
  Significant fold differences in serum between Month 0 and Month 1 in Modified Diet group: 1.82

## O=C(O)Cc1cn(C2OC(CO)C(O)C2O)cn1 (stereo not shown) [1-ribosyl-imidazoleacetate]
  Significant fold differences in serum between Baseline and Modified Diet groups at Month 1: 2.47
  Significant fold differences in serum between Month 0 and Month 1 in Modified Diet group: 3.29

## CCCCCCCCCCCCCCC(=O)O[C@H](CC(=O)[O-])C[N+](C)(C)C [Pentadecanoylcarnitine (C15), pentadecanoylcarnitine]
  Significant fold differences in serum between Baseline and Modified Diet groups at Month 1: 2.63
  Significant fold differences in serum between Month 0 and Month 1 in Modified Diet group: 2.92

## sphingomyelin (d18:2/24:2)
  Significant fold differences in serum between Baseline and Modified Diet groups at Month 1: 1.51
  Significant fold differences in serum between Month 0 and Month 1 in Modified Diet group: 1.31

## CCCCC/C=C\C/C=C\C/C=C\C/C=C\CCCC(=O)O[C@H](COC(=O)CCCCCCCCCCCCCCC)COP(=O)([O-])OCC[N+](C)(C)C [1-palmitoyl-2-arachidonoyl-GPC (16:0/20:4n6)]
  Significant fold differences in serum between Baseline and Modified Diet groups at Month 1: 1.83
  Significant fold differences in serum between Month 0 and Month 1 in Modified Diet group: 1.94

## sphingomyelin (d18:2/21:0, d16:2/23:0)
  Significant fold differences in serum between Baseline and Modified Diet groups at Month 1: 1.22
  Significant fold differences in serum between Month 0 and Month 1 in Modified Diet group: 1.08

## CCCCCCCCCCCCC/C=C/[C@@H](O)[C@H](COP(=O)([O-])OCC[N+](C)(C)C)NC(=O)CCCCCCCCCCCCCCCCCCCCCCC [Lignoceroyl sphingomyelin (d18:1/24:0), lignoceroyl sphingomyelin (d18:1/24:0)]
  Significant fold differences in serum between Baseline and Modified Diet groups at Month 1: 2.73
  Significant fold differences in serum between Month 0 and Month 1 in Modified Diet group: 2.3

## CCCCC/C=C\C/C=C\C/C=C\C/C=C\CCCC(=O)O[C@H](COC(=O)CCCCCCCCCCCCCCC)COP(=O)(O)OCCN [1-palmitoyl-2-arachidonoyl-GPE (16:0/20:4)]
  Significant fold differences in serum between Baseline and Modified Diet groups at Month 1: 2.22
  Significant fold differences in serum between Month 0 and Month 1 in Modified Diet group: 2.48

## NC(N)=N[C@@H](CC(=O)O)C(=O)O [Guanidinosuccinate]
  Significant fold differences in serum between Baseline and Modified Diet groups at Month 1: 1.84
  Significant fold differences in serum between Month 0 and Month 1 in Modified Diet group: 1.53

## 1-heptadecenoylglycerol (17:1)
  Significant fold differences in serum between Baseline and Modified Diet groups at Month 1: 2.34
  Significant fold differences in serum between Month 0 and Month 1 in Modified Diet group: 2.27

## dodecadienoate [Dodecadienoate (C12:2)]
  Significant fold differences in serum between Baseline and Modified Diet groups at Month 1: 2.91
  Significant fold differences in serum between Month 0 and Month 1 in Modified Diet group: 1.82

## CCCCC/C=C\C/C=C\C/C=C\C/C=C\CCCC(=O)OC[C@@H](O)COP(=O)(O)OCCN [1-arachidonoyl-GPE (20:4n6)]
  Significant fold differences in serum between Baseline and Modified Diet groups at Month 1: 2.06
  Significant fold differences in serum between Month 0 and Month 1 in Modified Diet group: 2.2

## C=CCCCCCCCCC(=O)O [10-undecanoate (C11:1n1), 10-undecanoate]
  Significant fold differences in serum between Baseline and Modified Diet groups at Month 1: 1.98
  Significant fold differences in serum between Month 0 and Month 1 in Modified Diet group: 1.92

## stearoyl-arachidonoyl-glycerol (18:0/20:4) [2]
  Significant fold differences in serum between Baseline and Modified Diet groups at Month 1: 1.79
  Significant fold differences in serum between Month 0 and Month 1 in Modified Diet group: 1.7

## CCCCCCCCCCCCCCCC(=O)NCC(=O)O [N-palmitoylglycine]
  Significant fold differences in serum between Month 0 and Month 1 in Modified Diet group: 1.15

## sphingomyelin (d17:1/14:0, d16:1/15:0)
  Significant fold differences in serum between Baseline and Modified Diet groups at Month 1: 2.88
  Significant fold differences in serum between Month 0 and Month 1 in Modified Diet group: 2.9

## CCCCC/C=C\C/C=C\C/C=C\C/C=C\CCCC(=O)OCC[N+](C)(C)C [Arachidonoylcholine]
  Significant fold differences in serum between Baseline and Modified Diet groups at Month 1: 2.54
  Significant fold differences in serum between Month 0 and Month 1 in Modified Diet group: 2.57

## CCCCCCCCC=CCCCCCCCCC(=O)O [10-nonadecanoate (19:1n9), 10-nonadecanoate]
  Significant fold differences in serum between Baseline and Modified Diet groups at Month 1: 1.34
  Significant fold differences in serum between Month 0 and Month 1 in Modified Diet group: 1.37

The amount applied is not stated for every result.
